The target of this test is T1, CYTL1, bait of the pull-down coupled with mass spectrometry (UniProt Q9NRR1).
T1 sequence: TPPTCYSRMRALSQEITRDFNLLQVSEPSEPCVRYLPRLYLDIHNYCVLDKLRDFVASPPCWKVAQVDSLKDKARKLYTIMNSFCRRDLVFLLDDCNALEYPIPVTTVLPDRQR
Put plainly: affinity purification with mass spectrometry; pull-down experiments coupled with mass spectrometry; bait construct and cells not stated.

Protein sequences, listed by entry. Tags and fused reporters are not part of them. Lines headed by an entry give the natural chain unless they say otherwise; changes in a name come on top.
UniProt P49821: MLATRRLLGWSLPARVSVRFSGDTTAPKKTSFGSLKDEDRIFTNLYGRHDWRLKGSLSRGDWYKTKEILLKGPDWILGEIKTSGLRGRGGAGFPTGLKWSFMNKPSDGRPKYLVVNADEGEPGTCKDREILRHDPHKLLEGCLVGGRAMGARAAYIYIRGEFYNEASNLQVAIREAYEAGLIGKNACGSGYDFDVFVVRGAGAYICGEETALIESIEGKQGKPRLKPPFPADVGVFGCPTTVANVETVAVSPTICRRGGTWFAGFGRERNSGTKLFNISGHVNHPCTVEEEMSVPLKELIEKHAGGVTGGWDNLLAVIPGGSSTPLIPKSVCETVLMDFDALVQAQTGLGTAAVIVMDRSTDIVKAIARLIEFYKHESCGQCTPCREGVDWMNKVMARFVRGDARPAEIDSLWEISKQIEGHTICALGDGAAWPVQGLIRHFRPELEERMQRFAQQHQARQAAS

Results are given in words; binding and its absence hold for the method and conditions named. Binding seen in cells or lysates may run through a third protein. A yes stands for co-enrichment or nearness to the bait. Other partners may have been found.

The results in this text go back to publication PMC8813937.

On to “NDUFV1, hit of the CYTL1 pull-down coupled with mass spectrometry (from UniProt P49821)”, for which the binding entry is on record as “binds”.
